According to PubChem BioAssay AID2685 (National Center for Advancing Translational Sciences (NCATS), 2010):
Some of the results follow. Further columns of the screen follow, without active or inactive calls. Most of these compounds were active or inconclusive in the main read-out, so they are no random draw. The note in brackets gives the kind of curve behind each potency; many fits are weak.

Assay: qHTS Assay for Lipid Storage Modulators in Drosophila S3 Cells;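 on cell number change: cells counted by Cell Tracker Red CMTPX staining in the red channel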
Settings: BODIPY lipid droplet fluorescence, 18-24 h; for cell number change: measured here: cell count max response, cells fed with added oleic acid
Method in brief: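 Laser-scanning cytometry quantifies lipid droplet accumulation (500–530 nm total intensity; droplet/cell object ratio) in oleic acid-fed (400 uM added) Drosophila S3 cells treated with a concentration series. 20 uM Triacsin C defined 100% inhibition.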

[1] = measured here: cell number channel AC50, cells fed with added oleic acid
[2] = measured here: lipid fluorescence (Fed channel) AC50, cells fed with added oleic acid

| SMILES | cell number change [%] | AC50 [1] | AC50 [2] |
| --- | --- | --- | --- |
| C=CCc1ccc(OCCCOc2ccc(C)c(C)c2)c(OC)c1 | 54.1 | 18.4 µM [rising, single point] | – |
| CC(=O)N1c2ccc(S(=O)(=O)NCCC(=O)Nc3cccc(Cl)c3)cc2CC1C (centres undefined) | -31.1 | 18.4 µM [falling, single point] | 6.51 µM [falling, single point] |
| OC(CNCCc1ccc(C(F)(F)F)cc1)COc1ccc2ccccc2c1 (centres undefined) | -87.9 | 18.4 µM [falling, partial curve] | 10.3 µM [falling, partial curve] |
| COC(=O)c1ccc(C(=O)OC)c(NC(=O)COC(=O)C2CC2C)c1 (centres undefined) | 40 | 23.1 µM [rising, single point] | – |
| CCn1c(=N)n(CC(=O)C(C)(C)C)c2ccccc21 | 14.4 | 1.46 µM [rising, partial curve] | – |
| COc1ccc(/C=C/C(=O)NNc2cc(=O)n(C)c(=O)n2C)cc1OC | -3.48 | – | 16.4 µM [falling, partial curve] |
| C#CCN1C(=O)C(O)(CC(=O)c2ccc(OC)c(OC)c2)c2ccccc21 (centres undefined) | – | – | 8.2 µM [falling, partial curve] |
| CC(C)OC(=O)c1cccc(C(=O)Nc2cccc(NC(=O)c3cccc(C(=O)OC(C)C)n3)n2)n1 | -65.9 | 20.6 µM [falling, single point] | 18.4 µM [falling, single point] |
| CCC(C(=O)Nc1ccccc1F)n1nc(C)c2c(C)n(-c3ccccc3)nc2c1=O (centres undefined) | – | – | 6.51 µM [rising, single point] |
| COC(=O)c1ccccc1NS(=O)(=O)c1c(C)noc1C | 69.3 | 29.1 µM [rising, single point] | 4.11 µM [rising, full curve] |
| CCOC(=O)Cc1cc(=O)[nH]c(=O)[nH]1 | 11.3 | – | 1.03 µM [rising, partial curve, poor fit] |
| COC(=O)C1=C(C)NC(C)=C(C(=O)OC)C1C(=O)OCC(=O)N1c2ccccc2CC1C (centres undefined) | 6.54 | – | 0.58 µM [rising, single point] |
| O=C(NCCOc1ccccc1)c1ccccc1 | – | 2.06 µM [rising, partial curve] | 6.51 µM [rising, single point] |
| O=C(NCCCc1ccncc1)C1CCC(=O)N(Cc2cccc(F)c2)C1 (centres undefined) | – | – | 4.61 µM [falling, single point] |
| CCOC(=O)C(CC)/C(C)=N/NC(=O)c1ccccc1[N+](=O)[O-] (centres undefined) | -2.08 | 0.651 µM [rising, single point] | 0.651 µM [rising, partial curve, poor fit] |
| CCCNC(=O)COC(=O)c1ccc(S(=O)(=O)N2CCCCCC2)cc1 | 40.8 | – | 6.51 µM [falling, single point] |
| CS(=O)(=O)c1ccc(NC(=O)CCN2C(=O)C3CCCCC3C2=O)cc1 (centres undefined) | 2.03 | – | 11.6 µM [rising, partial curve] |
| O=C(CSc1ccc(-c2ccc(F)cc2)nn1)NCCc1ccccc1 | 25.6 | – | – |
| CC1(C)Cc2c(C#N)c(OCC(=O)c3ccccc3)nc(-c3ccoc3)c2CO1 | 2.52 | – | 4.11 µM [rising, full curve, poor fit] |
| O=c1[nH]c2ccccc2cc1CN(CC1CCCO1)S(=O)(=O)c1ccc(Cl)cc1 (centres undefined) | 30.3 | – | – |

| SMILES | cell number change [%] | AC50 [1] | AC50 [2] |
| --- | --- | --- | --- |
| O=Nc1c(O)n(Cc2cccc(Cl)c2)c2ccccc12 | -2.53 | – | 4.61 µM [rising, partial curve, poor fit] |
| COc1ccc(S(=O)(=O)N2CCCCC2)cc1NC(=O)C1CSC2(C)CCC(=O)N12 (centres undefined) | -10.5 | – | 29.1 µM [falling, single point] |
| CC(C)OC(=O)CCc1nc2ccccc2[nH]c1=O | -3.68 | 2.06 µM [falling, partial curve] | – |
| Cc1ccc(OCC(=O)N2CCN(C(=O)c3cccc(F)c3)CC2)cc1 | 90.1 | 29.1 µM [rising, single point] | – |
| O=C(COC(=O)c1ccc(F)cc1Cl)Nc1cccc(S(=O)(=O)N2CCOCC2)c1 | 20.1 | – | 29.1 µM [falling, single point] |
| Cc1ccc(-c2csc3ncnc(SCC(=O)c4ccc5c(c4)OCCO5)c23)cc1 | – | – | 0.58 µM [falling, full curve] |
| Clc1ccc(-c2nc(/C=N/N3CCOCC3)c3ccccn23)cc1 | -42.1 | 29.1 µM [falling, single point] | – |
| C/C(=N\N1CCN(c2ccccc2)CC1)c1ccccc1O | 12.4 | – | 29.1 µM [rising, single point] |
| CC1CCC(C(C)C)C(OC(=O)Cn2c(-c3ccc(Cl)cc3)[n+](C)c3ccccc32)C1 (centres undefined) | -62.6 | 8.2 µM [falling, partial curve, poor fit] | 6.51 µM [falling, partial curve] |
| O=C(c1noc2c1CCCC2)N1CCN(c2ccc(F)cc2)CC1 | -0.133 | – | – |
| CCC(=O)N=C1SC2CS(=O)(=O)CC2N1c1cccc(OC)c1 (centres undefined) | -19.1 | – | 0.146 µM [falling, full curve] |
| Cc1ccc(NC2CCCN(C(=O)CSc3ccccn3)C2)cc1C (centres undefined) | 12.5 | – | 29.1 µM [rising, single point] |
| COc1ccc(CCNC(=O)COC(=O)C2CC2)cc1 | -78.5 | – | – |
| CC1CCN(c2ccccc2NC(=O)c2cc([N+](=O)[O-])ccc2N2CCOCC2)CC1 | -35.4 | 23.1 µM [falling, partial curve] | – |
| COc1ccc(CC(=O)NCc2nc(-c3ccccc3)no2)cc1 | 19.3 | 6.51 µM [falling, single point] | 6.51 µM [falling, single point] |
| COc1ccccc1C(=O)COC(=O)CCNS(=O)(=O)c1ccc(C)c(C)c1 | -42.7 | 29.1 µM [falling, single point] | 14.6 µM [rising, partial curve] |
| CCSc1nnc(NC(=O)NC2CCCCC2)s1 | -53.9 | 0.82 µM [falling, full curve, poor fit] | 4.61 µM [falling, full curve] |
| COc1cccc(C(C(=O)NC2CCCC2)N(CC2CCCO2)C(=O)Cc2cccs2)c1 (centres undefined) | -24 | – | 11.6 µM [falling, partial curve] |
| CCOC(=O)CN1C(=O)COc2ccc(Cl)cc21 | -40.1 | – | – |
| CCO[C@@H]1OC(C(=O)N2CCN(Cc3ccc4c(c3)OCO4)CC2)=C[C@H](C2CCCCC2)[C@H]1CCCO | -34.4 | 23.1 µM [falling, single point] | 20.6 µM [falling, partial curve] |

Structures above with a thiophene ring, fused or not, in the order listed:

| SMILES | cell number change [%] | AC50 [1] | AC50 [2] |
| --- | --- | --- | --- |
| Cc1ccc(-c2csc3ncnc(SCC(=O)c4ccc5c(c4)OCCO5)c23)cc1 | – | – | 0.58 µM [falling, full curve] |
| COc1cccc(C(C(=O)NC2CCCC2)N(CC2CCCO2)C(=O)Cc2cccs2)c1 (centres undefined) | -24 | – | 11.6 µM [falling, partial curve] |

Continuation.

| SMILES | cell number change [%] | AC50 [1] | AC50 [2] |
| --- | --- | --- | --- |
| CCN(CC)C(=O)COc1ccc(N(C)S(=O)(=O)c2ccc(NC(C)=O)cc2)cc1 | 1.28 | – | 0.58 µM [rising, single point] |
| CCOC(=O)N=Nc1c2ccccc2c2nc3no[nH]c3nc12 | -17.6 | 6.51 µM [falling, single point] | 2.06 µM [falling, full curve] |
| CC(=O)c1ccc(NC(=S)NN2C(C)CCCC2C)cc1 (centres undefined) | 52.2 | 1.03 µM [rising, full curve, poor fit] | 0.651 µM [rising, full curve, poor fit] |
| COc1cccc(OCC(=O)NN=C2c3ccccc3-c3ccccc32)c1 | 5.46 | – | – |
| CC1=CCC2COC(c3ccc[n+](Cc4ccccc4)c3)C1C2 (centres undefined) | 7.04 | – | 2.59 µM [rising, single point] |
| CCN(Cc1ccccc1)C(=O)c1cc(-c2ccc(OC)c(OC)c2)nc2ccccc12 | 15.1 | – | 18.4 µM [falling, single point] |
| COC(=O)C1=C(C)N=C2SC(C#N)=C(N)N2C1c1ccc(OCc2ccccc2)cc1 (centres undefined) | 6.18 | – | 0.731 µM [rising, full curve] |
| O=C(COC(=O)COc1ccc(Cl)cc1)NCCNC(=O)COC(=O)COc1ccc(Cl)cc1 | -10.3 | – | 0.461 µM [falling, full curve, poor fit] |
| CN(Cc1nccn1C)C(=O)c1ccc(OC2CCN(CCc3ccccc3)CC2)cc1 | -10.2 | 1.84 µM [falling, partial curve] | – |
| Cc1cc(C)c(Cn2c3ccccc3c3cnn(CC(=O)NCCN4CCOCC4)c(=O)c32)c(C)c1 | – | – | 6.51 µM [rising, partial curve] |
| CC[n+]1c(/C=C/c2c[nH]c3ccccc23)ccc2cc(C)ccc21 | -93.8 | 6.51 µM [falling, full curve] | – |
| O=C(Nc1ccc2ccccc2c1)c1ccccc1O | 5.56 | – | – |
| N#Cc1nc(-c2ccc(OCc3ccc(Cl)cc3)cc2)oc1N1CCC(C(N)=O)CC1 | 7.22 | – | 0.00517 µM [falling, full curve, poor fit] |
| CCCOc1ccc(OCC(=O)c2[nH]c(C)c(C(C)=O)c2C)cc1 | 4.05 | – | – |
| CC(C)C(=O)N1CCN(c2ccc(NC(=O)COc3ccccc3[N+](=O)[O-])cc2)CC1 | -47.1 | 29.1 µM [falling, single point] | – |
| N#CCCN(CCC#N)C(=S)NC1CC2C=CC1C2 (centres undefined) | -42.3 | 13 µM [falling, partial curve] | 16.4 µM [falling, single point] |
| COc1ccc(-n2c(SCC#N)nnc2-c2cccnc2)cc1 | – | – | 2.91 µM [rising, partial curve] |
| CC1(c2ccccc2)NC(=O)N(CC(=O)N2CCN(S(=O)(=O)c3cccs3)CC2)C1=O (centres undefined) | 10.5 | – | – |
